Measured values: PubChem BioAssay AID1471 (National Center for Advancing Translational Sciences (NCATS), 2008)
Where “and” joins values, the source holds several entries; their conditions need not be identical. Equal values may be shown once. Screen size: about 230,000 compounds; about 310 (0.13%) were called active. Roughly 2% stayed inconclusive and do not appear here. Calls come from the whole dose curve; as a rule, active = well fitted activation curve with a large enough effect; inconclusive = small, poorly fitted or top-dose-only effect; inactive = no such curve, though single readings can be large or run the other way. The list shows a part of the results, in another mix than the full data. Where no call is shown, the source filed none. Some compounds were tested as several samples or in several runs, with calls that do not always agree.

assay: qHTS Multiplex Assay to Identify Dual Action Probes in a Cell Model of Huntington: Cytoprotection (ATP); conditions: PC12 HTT-Q103 induced, ATP luminescence, 40 h; cytoprotection (ATP increase): at 56.4 µM (top of the series) unless noted; note: nearly all actives have a fitted effect of over 45% in size;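 for cytoprotection (ATP increase): toxic huntingtin expression switched on by the ecdysone agonist tebufenozide; % of control where 0% means no effect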
Outline: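 ATP quantification (ATPlite) reports survival of PC12 cells in which tebufenozide, 100 nM final, switches on Htt exon 1 with 103 glutamines linked to GFP; compounds are titrated.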
Potency is the fitted concentration of half-maximal effect.

| Structure (SMILES) | Potency | cytoprotection (ATP increase) |
| --- | --- | --- |
| O=C(Nc1nc(NC(=O)c2ccco2)n(-c2ccccc2)n1)c1ccccc1 | active: 3.98 µM |  |
| CC1=C(CO)C(=O)OC([C@@H](C)C2CC[C@H]3C4C[C@H]5O[C@]56[C@@H](O)C=CC(=O)[C@]6(C)C4CC[C@]23C)C1 (stereo partly drawn) | active: 3.55 µM |  |
| CCCCCC(=O)/C=C/C=C\CCCCCCCC(=O)O |  | -56.6% |
| O=c1n(CCCN2CCN(c3cccc(Cl)c3)CC2)nc2ccccn12 |  | -40.6% |
| O=C(c1ccc(F)cc1)C(CN1CCOCC1)c1ccccc1 (stereo not drawn) | active: 31.6 µM |  |
| CCOC(=O)CNC(=O)O[C@@H]1C(=O)c2cc(OC)ccc2O[C@H]1c1cccc(OC)c1 |  | -41.6% |
| COc1ccc(-c2c(C)cc3oc(=O)cc(-c4ccccc4)c3c2C)cc1C=O |  | 71.8% |
| CCN(CC)S(=O)(=O)c1ccc(F)c(C(=O)NCCC(C)C)c1 |  | 299% [at 10 µM] |
| Cc1ccc(C2NCCS2)cc1 (stereo not drawn) |  | 43.6% |
| CCCCCCCC/C=C\CCCCCCCC(N)=O |  | -32.7% |
| O=C(/C=C/c1ccc(O)cc1)c1ccc(O)cc1O |  | 31.3% |
| Cc1cccc(C2=NN(c3ccccc3)[C@@H](C(=O)N3CCOC3=O)[C@@H]2c2ccc(Cl)cc2)c1 |  | -105% |
| Cc1ccc2[nH]c(O)c(N=NC(=O)CCc3ccccc3)c2c1Br |  | 319% [at 1.9 µM] |
| C[C@@H]1CNCCN1S(=O)(=O)c1cccc2cnccc12 | active: 12.6 µM |  |
| Cc1sc2ncnc(OCC(=O)N3CCN(S(=O)(=O)c4ccccc4)CC3)c2c1C |  | 319% [at 10 µM] |
| COc1cccc(-c2cc(=O)c3cc(NC(=O)c4ccccc4)ccc3[nH]2)c1 |  | -177% |
| CCCCC/C=C/C=C1/C(=O)C=C[C@@H]1C/C=C\CCCC(=O)O |  | 48.8% and -91.3% |
| COc1ccc(NC(=S)NCCc2ccc(S(N)(=O)=O)cc2)c(OC)c1 |  | -15.9% |
| Nc1c2ccccc2nc2ccccc12 |  | -272% |
| CCC[C@H](N[C@@H](C)C(=O)N1[C@@H]2CCCC[C@H]2C[C@H]1C(=O)O)C(=O)OCC |  | 31.1% |
| COc1ccc2c(c1)O[C@H](c1ccc3c(c1)OCO3)[C@@H](OC(=O)NS(=O)(=O)c1ccc(C)cc1)C2=O |  | -35.5% |
| CN(C(=O)c1cccs1)c1ccc(OCC(=O)Nc2ccc(C(=O)O)cc2)cc1 | active: 0.891 µM |  |
| COc1ccccc1-c1ccc(C(=O)O)o1 |  | -52% [at 96.6 µM] |
| O=C(CN1CCCCC1)N1CCCc2c1c(=O)oc1ccc(OCc3ccccc3)cc21 | active: 3.16 µM |  |

Single records (already shown).
CC1=C(CO)C(=O)OC([C@@H](C)C2CC[C@H]3C4C[C@H]5O[C@]56[C@@H](O)C=CC(=O)[C@]6(C)C4CC[C@]23C)C1 (stereo partly drawn) is listed as Potency: active: 3.55 µM
CCCCC/C=C/C=C1/C(=O)C=C[C@@H]1C/C=C\CCCC(=O)O is listed as cytoprotection (ATP increase): 48.8% and -91.3%
Cc1ccc2[nH]c(O)c(N=NC(=O)CCc3ccccc3)c2c1Br is listed as cytoprotection (ATP increase): 319% [at 1.9 µM]
C[C@@H]1CNCCN1S(=O)(=O)c1cccc2cnccc12 is listed as Potency: active: 12.6 µM

Another view of some results above:
Structure (SMILES) | Potency | cytoprotection (ATP increase)
Cc1sc2ncnc(OCC(=O)N3CCN(S(=O)(=O)c4ccccc4)CC3)c2c1C |  | 319% [at 10 µM]
CN(C(=O)c1cccs1)c1ccc(OCC(=O)Nc2ccc(C(=O)O)cc2)cc1 | active: 0.891 µM | 

Next part.

| Structure (SMILES) | Potency | cytoprotection (ATP increase) |
| --- | --- | --- |
| CNC1C(O)C2OC3OC(C)CC(=O)[C@@]3(O)O[C@H]2[C@H](NC)C1O (stereo partly drawn) |  | -53% |
| CC(C)C(=O)N(c1ccc2oc(=O)sc2c1)S(=O)(=O)c1cccs1 | active: 12.6 µM |  |
| Cc1nnc2sc(SCc3ccc(Cl)cc3)nn2c1=O |  | 195% [at 10 µM] |
| Cc1cc2oc(=O)cc(-c3ccccc3)c2c(C)c1-c1ccoc1 |  | -64.9% |
| O=c1cc(-c2ccccc2)oc2cc(O)cc(O)c12 |  | -93.8% |
| O=C(CCCCCN1C(=O)c2cccc3cccc(c23)C1=O)NO |  | -107% |
| CC(C)(C)N1C(=O)[C@@H]2[C@H]3C(=CC[C@H]2C1=O)C(=O)[C@H]1O[C@H]1[C@H]3O | active: 5.62 µM |  |
| COC(=O)c1sccc1NC(=O)Cc1ccc(OC)cc1 |  | 330% [at 10 µM] |
| N#CC1=C(SCc2ccccc2)NC(=O)CC1c1ccccc1 (stereo not drawn) |  | 314% [at 10 µM] |
| Cn1cc(C=C2C(=O)CC(C)(C)CC2=O)c2ccccc21 |  | 94.2% [at 10 µM] |
| COc1cc2oc(=O)cc(-c3cccc(-c4ccc(C(F)(F)F)cc4)c3)c2c(OC)c1OC |  | -0.225% |
| CCc1cccc(CC)c1NC(=O)c1ccccc1CCc1ccccc1 |  | 331% [at 10 µM] |
| COC(=O)[C@H](COC(C)(C)C)NC(=O)O[C@@H]1C(=O)c2ccc(OC)cc2O[C@H]1c1ccc2c(c1)OCO2 |  | -36.6% |
| CC(C)OC(=O)[C@@H]1CC[C@H](C)[C@@H](CCCCO)O1 |  | 51.8% |
| COC(=O)C1(C(=O)OC)C[C@H]2CON=C2[C@H]1c1ccccc1 |  | 17.2% |
| C=CCOc1cccc(C2C(C(=O)c3ccc(C)o3)=C(O)C(=O)N2c2nccs2)c1 (stereo not drawn) |  | 158% |
| N[C@@H](Cc1cc(CP(=O)(O)O)cc(-c2ccccc2Cl)c1)C(=O)O | active: 31.6 µM |  |
| COc1cc(-c2nc(S(=O)(=O)c3ccc(C)cc3)c(N(C)C)o2)cc(OC)c1OC | active: 0.891 µM |  |
| CCOC(=O)C1(C(C)C)Oc2ccccc2C(c2ccc(OC)cc2)=C1C(=O)OC (stereo not drawn) |  | -35.6% |
| COc1nccnc1NS(=O)(=O)c1ccc(N=Cc2c(C)[nH]n(-c3ccc(Cl)cc3)c2=O)cc1 |  | 185% [at 10 µM] |
| Cc1cc(C)c2nc3nc(C)cc(C)c3c(N)c2c1 |  | 194% [at 10 µM] |
| CNCCCC12CCC(c3ccccc31)c1ccccc12 |  | -49.5% |
| Oc1cc2c(cc1O)CN(C(=S)NCCc1ccc(Cl)cc1)CCC2 |  | 104% |
| CCCCCCC(=O)OC1CC(C)(C)NC(C)(C)C1 |  | -8.03% |

| Structure (SMILES) | Potency | cytoprotection (ATP increase) |
| --- | --- | --- |
| S=C(Nc1ccc(Br)cc1)NC1CCCCC1 |  | 224% [at 0.074 µM] |
| CCOC(=O)c1sc2nc(N3CCOCC3)c3c(c2c1N)CCN(C)C3 | active: 0.631 µM |  |
| COc1ccc(NC(=O)Nc2nc(C)cc(C)n2)c(OC)c1 |  | 379% [at 10 µM] |
| CC1(C)Cc2c(c(=S)nc(-c3ccccc3)n2CCO)CO1 | active: 20 µM |  |
| Oc1ccc(C(c2nnnn2C2CCCCC2)N2CCOCC2)cc1 (stereo not drawn) |  | 313% [at 10 µM] |
| O=C(CSc1c2c(nc3cc(Cl)ccc13)CCCC2)NCc1ccco1 | active: 12.6 µM |  |
| COc1ccc2[nH]c(-c3ccccc3)c(CCNC(C)=O)c2c1 |  | -36.5% |
| CCCCC/C=C\C/C=C\CCCCCCCCCC(=O)O |  | -4.22% |
| CC(CCC(=O)O)C1CCC2C3CC[C@H]4CC(O)CC[C@@]4(C)C3CC(O)[C@]12C (stereo partly drawn) |  | 20.6% |
| O=C(Nc1ccccc1)c1ccc(Br)o1 |  | -58.2% [at 96.6 µM] |
| CC1CCN(C(=O)/C=C/c2ccc(C(C)(C)C)cc2)CC1 |  | 156% [at 0.074 µM] |
| CCN1C(=O)C(CC(=O)Nc2ccc(OC)cc2)N(Cc2cccnc2)C1=S (stereo not drawn) |  | 108% |
| Cc1nn(C)c(C)c1/C=C/C(=O)O | active: 11.2 µM |  |
| O=C(c1cc(-c2cccs2)on1)N1CCCc2ccccc21 |  | 385% [at 10 µM] |
| O=C(NC1C/C(=N/O)c2cc3c(cc21)OCO3)C(F)(F)F (stereo not drawn) | active: 3.98 µM |  |
| Cc1nn(C)c2nc(NNC(=O)Nc3cc(Cl)nc(Cl)c3)cc(C(C)C)c12 |  | -28.6% |
| O=c1[nH]cc(F)c(=O)[nH]1 |  | -133% |
| CCCCC[C@H](O)/C=C/[C@@H]1[C@@H](C/C=C\CCCC(=O)O)[C@H]2CO[C@@H]1C2 |  | -9.61% |
| Cc1cn(C2CC(N=[N+]=[N-])C(CO)O2)c(=O)[nH]c1=O (stereo not drawn) |  | -39.3% |
| OC[C@@H]1[C@@H](c2ccc(Cl)cc2)C(c2cccc(Cl)c2)=NN1c1ccccc1 |  | -57.1% |
| O=C(N/N=C/c1ccco1)C1CC1(c1ccccc1)c1ccccc1 (stereo not drawn) |  | 298% [at 10 µM] |
| Cc1ccc(S(=O)(=O)N2CCC(=O)N(CCOC(=O)Nc3ccc(C)c(C)c3)CC2)cc1 |  | 1.18% |
| Cc1cc(-c2ccccc2)nc(N/N=C/c2ccc([N+](=O)[O-])cc2)n1 |  | 209% [at 10 µM] |
| CN(C)Cc1cc(C(C)(C)c2cc(CN(C)C)c(O)c(CN(C)C)c2)cc(CN(C)C)c1O |  | 374% [at 10 µM] |

| Structure (SMILES) | Potency | cytoprotection (ATP increase) |
| --- | --- | --- |
| CC[C@@H]1C(c2ccccc2)=NN(c2ccccc2)[C@H]1C(=O)N1CCOC1=O |  | -65.2% |
| CN1CCc2cccc3c2C1Cc1ccc(O)c(O)c1-3 (stereo not drawn) |  | 25.3% |
| N#CCCn1cc(C(=O)Nc2ccc(C(=O)O)cc2)c(-c2cccs2)n1 |  | 299% [at 10 µM] |
| CN(C)S(=O)(=O)c1ccc(/C(O)=C2/C(=O)C(=O)N(Cc3cccnc3)C2c2cccs2)cc1 (stereo not drawn) |  | 225% [at 10 µM] |
| N#Cc1cc2c(N)c(C(=O)Nc3ccccc3)sc2nc1N |  | 280% [at 10 µM] |
| CCOC(=O)C1C(C(=O)OC)=C(c2ccc(OC)cc2)c2ccccc2N1S(=O)(=O)C(F)(F)F (stereo not drawn) |  | -12.1% |
| Cn1c(SCC(=O)N/N=C/C=C/c2ccco2)nc2ccccc21 |  | 147% [at 10 µM] |
| Cn1cc(C2=C(c3ccc(Cl)cc3Cl)C(=O)NC2=O)c2ccccc21 | active: 31.6 µM |  |
| Clc1cccc(NCc2nnc3n2CCCCC3)c1 | active: 3.98 µM |  |
| C=CCc1cccc(C=Nc2ccc(Br)cc2)c1O |  | 40.2% |
| Oc1ccc(O)cc1 | active: 31.6 µM |  |
| OC[C@@H]1[C@@H](c2ccc(Cl)cc2)C(c2ccc(F)cc2)=NN1c1ccccc1 |  | -194% |
| Cc1nnc2n1N=CC=C(c1ccccc1)S2 | active: 15.8 µM |  |
| O=C1C[C@H]2CCCCC(=O)N3CC[C@@H](C1)[C@@H]23 |  | -1.58% [at 96.6 µM] |
| COc1ccc(N(C(C)C(=O)N/N=C/c2cc(Br)c(C)o2)S(C)(=O)=O)cc1 (stereo not drawn) | active: 0.891 µM |  |
| CCC(=O)OCC(=O)[C@@]1(OC(=O)CC)[C@@H](C)C[C@@H]2[C@H]3CCC4=CC(=O)C=C[C@]4(C)[C@@]3(F)[C@@H](O)C[C@@]21C |  | -44.2% |
| Cc1cc(=O)c2cc(Cl)ccc2[nH]1 |  | 37% [at 96.6 µM] |
| O=C1c2c(O)cccc2Cc2cccc(O)c21 |  | -30.8% |
| COC(=O)C1=C(C)NC(C)=C(C(=O)OCCNCc2ccccc2)C1c1cccc([N+](=O)[O-])c1 (stereo not drawn) |  | -298% |
| CCc1ccc(C2c3[nH]c4ccccc4c3CCN2C(=O)c2cc(C)nn2C)cc1 (stereo not drawn) |  | 426% [at 10 µM] |
| O=C1OCCN1C(=O)[C@H]1[C@H](c2ccc(F)cc2)C(c2ccc(F)cc2)=NN1c1ccc(Br)cc1 |  | -148% [at 40.3 µM] |
